Consider one molecule from article PMC10185471.

Sequences of proteins named here, by UniProt entry; tags and fusion partners are left off. Residues count along the entry.
UniProt Q9Z2G6, residues 22-790: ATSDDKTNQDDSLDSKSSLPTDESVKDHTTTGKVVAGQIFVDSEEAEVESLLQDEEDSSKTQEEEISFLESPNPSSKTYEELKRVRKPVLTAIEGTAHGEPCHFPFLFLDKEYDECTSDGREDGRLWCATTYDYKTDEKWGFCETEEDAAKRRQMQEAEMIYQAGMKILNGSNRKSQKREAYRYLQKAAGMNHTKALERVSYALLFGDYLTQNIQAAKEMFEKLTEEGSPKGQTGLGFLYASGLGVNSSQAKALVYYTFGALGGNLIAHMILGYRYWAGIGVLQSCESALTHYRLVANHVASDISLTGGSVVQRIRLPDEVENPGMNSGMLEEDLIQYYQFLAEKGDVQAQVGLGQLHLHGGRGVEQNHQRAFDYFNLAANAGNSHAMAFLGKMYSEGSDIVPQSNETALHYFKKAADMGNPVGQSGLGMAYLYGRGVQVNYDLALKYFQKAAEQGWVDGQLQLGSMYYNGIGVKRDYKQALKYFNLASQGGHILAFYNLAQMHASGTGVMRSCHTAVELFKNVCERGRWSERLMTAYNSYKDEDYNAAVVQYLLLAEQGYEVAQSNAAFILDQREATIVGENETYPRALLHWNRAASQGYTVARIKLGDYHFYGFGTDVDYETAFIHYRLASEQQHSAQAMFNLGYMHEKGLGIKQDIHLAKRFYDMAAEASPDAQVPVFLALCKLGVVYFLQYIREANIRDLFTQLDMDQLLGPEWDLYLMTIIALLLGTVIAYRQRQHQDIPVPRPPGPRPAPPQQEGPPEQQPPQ

The assay concerns the target SEL1L-TurboID-V5 (UniProt Q9Z2G6). Description: proximity labelling; MEF transfected with SEL1L-TurboID-V5 (in the presence of H151), cGAMP for the indicated times, 50 µM biotin 10 min at 37 °C; streptavidin agarose, immunoblot. On the technique in general: In western blotting, separated proteins are transferred to a membrane and probed.

These are yes or no findings as the source states them, for the method shown. Binding seen in cells or lysates may run through a third protein. These calls come from enrichment with a bait or labelling near it, and not all partners need be listed.

B1: CALNEXIN, endogenous, mouse (protein, UniProt P35564 21-591)
chain: HDGHDDDAIDIEDDLDDVIEEVEDSKSKSDASTPPSPKVTYKAPVPTGEVYFADSFDRGSLSGWILSKAKKDDTDDEIAKYDGKWEVDEMKETKLPGDKGLVLMSRAKHHAISAKLNKPFLFDTKPLIVQYEVNFQNGIECGGAYVKLLSKTAELSLDQFHDKTPYTIMFGPDKCGEDYKLHFIFRHKNPKTGVYEEKHAKRPDADLKTYFTDKKTHLYTLILNPDNSFEILVDQSVVNSGNLLNDMTPPVNPSREIEDPEDRKPEDWDERPKIADPDAVKPDDWDEDAPSKIPDEEATKPEGWLDDEPEYIPDPDAEKPEDWDEDMDGEWEAPQIANPKCESAPGCGVWQRPMIDNPNYKGKWKPPMIDNPNYQGIWKPRKIPNPDFFEDLEPFKMTPFSAIGLELWSMTSDIFFDNFIISGDRRVVDDWANDGWGLKKAADGAAEPGVVLQMLEAAEERPWLWVVYILTVALPVFLVILFCCSGKKQSNAMEYKKTDAPQPDVKDEEGKEEEKNKRDEEEEEEKLEEKQKSDAEEDGVTGSQDEEDSKPKAEEDEILNRSPRNRKPRRE
For the molecule B1, the binding entry was “binds”.
